# Screening data

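Uptake of anthrax lethal toxin into cultured cells, read by FRET (460/530 nm ratio) and reported from the 460 nm channel; the cell line is not named here. Each compound was tested as a concentration series from about 0.0005 to 40 µM. The number is the fitted AC50 of the 460 nm signal alone; lower values mean a more potent effect. A falling signal goes with compounds filed as inhibitors or cytotoxic, a rising one with activators or fluorescent compounds (inferred from the filed classes).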

Values are in µM. Common to all entries: measured here: 460 nm channel. Part of the compounds only, not a random draw; the main read-out is not listed here. Potencies fitted to partial, single-point or poorly fitting curves are rough. The first word of each remark tells which way the curve ran; it can be opposite to the aim of the assay.

SMILES,AC50 (µM),remark
COc1cccc(Nc2ncc3nc(-c4cccs4)c(=O)n(Cc4cccs4)c3n2)c1,1.259,"rising, full curve"
CN(C)c1ccc(C2(c3ccc(N(C)C)cc3)OC(=O)c3cc(N(C)C)ccc32)cc1,5.012,"falling, full curve"
CC(C)(C)N1C(=O)c2ccc(C(=O)Nc3nccs3)cc2C1=O,12.59,"falling, partial curve"
CCSc1ccccc1C(=O)Nc1nncs1,5.012,"rising, single point"
O=C1N(CC(=O)N2CCc3ccccc32)CCN1Cc1ccc(Cl)cc1,0.2512,"rising, partial curve, poor fit"
COc1cccc(Cn2nnc(C(=O)NCc3ccccc3Cl)c2N)c1,12.59,"falling, partial curve"
COc1ccc(C)cc1NC(=O)CN(Cc1nnc(-c2ccc(Cl)cc2)o1)C1CCCC1,7.943,"rising, partial curve, poor fit"
CC1(C)Cc2c(sc3ncnc(N)c23)CO1,31.62,"falling, partial curve"
Cc1cc(OCC(=O)C(C)(C)C)c2c(C)c(C)c(=O)oc2c1,1.585,"rising, partial curve"
O=c1c(-c2cc(F)cc(F)c2)nc2cnc(N3CCOCC3)nc2n1Cc1cccs1,0.631,"rising, full curve"
Cc1oc2cc(OC(C)C(=O)O)ccc2c(=O)c1Oc1ccccc1 (centres undefined),25.12,"rising, single point"
Cc1nnc(NC(=O)C2(c3ccccc3)CCOCC2)s1,0.007943,"falling, full curve"
OC(c1ccc(Cl)cc1)(c1ccc(Cl)cc1)C(Cl)(Cl)Cl,25.12,"falling, partial curve"
N#Cc1ccccc1-n1c(N)c(C(=O)N2CCCC2)sc1=S,31.62,"falling, single point"
Cc1noc(C)c1CSc1ccc2ccccc2n1,0.1585,"falling, full curve"
CN(C)CCNC(=O)c1ccc2c(c1)N(Cc1ccc(F)cc1)CCS2,3.981,"falling, partial curve"
COc1ccccc1NC(=O)CSc1nc2ncccc2[nH]1,25.12,"rising, single point"
COC(=O)C1=CNC=C(C(=O)OC)C1c1ccc(Cl)cc1,10,"rising, partial curve"
COc1ccc(-c2ccc(=N)n(CCCC(=O)O)n2)cc1,12.59,"falling, partial curve, poor fit"
CCNc1ncc2nc(-c3ccc(Cl)cc3)c(=O)n(-c3ccc(OC)cc3)c2n1,12.59,"rising, partial curve"
COc1cccc(-n2nnc3c(=O)n(Cc4cccc(F)c4)cnc32)c1,1.995,"falling, partial curve"
Cc1nc2c(ccc3nc(NC(=O)c4ccc5c(c4)OCCO5)sc32)s1,3.162,"falling, single point"
O=C(NC1CCCCC1)c1ccc(CNc2ccccc2)o1,1.585,"rising, partial curve"
COc1ccccc1C[C@@H](Cc1nc2ccccc2[nH]1)c1nc2ccccc2[nH]1,31.62,"falling, single point"
CCCCCc1ccc(CC(=O)O)cc1,3.981,"rising, single point"
CC(C)n1nnnc1SCC(=O)NCc1cccs1,25.12,"rising, single point"
O=C(CSc1nc2ccccc2c(=O)n1NC(=O)Cc1ccccc1)NCc1ccco1,0.2512,"rising, full curve"
COc1ccc2[nH]cc(CCNc3cc(-c4ccc5c(c4)OCO5)ncn3)c2c1,31.62,"falling, single point"
O=C1C(SCCO)=C(SCCO)C(=O)c2ccccc21,3.981,"falling, full curve"
Cc1onc(-c2c(Cl)cccc2Cl)c1C(=O)Nn1cnnc1,5.012,"rising, single point"
Cc1ccc(/C=N/n2cnc3sc4c(c3c2=O)CCCC4)o1,31.62,"falling, single point"
CN1CCN(Cc2nc3c(c(=O)n(C)c(=O)n3C)n2Cc2ccccc2Cl)CC1,7.943,"falling, partial curve"
COc1ccc(N2CCN(c3oc(-c4ccccc4OC)nc3C#N)CC2)cc1,2.512,"rising, single point"
CN1CCN(c2nc3cc(C(F)(F)F)ccc3n3cccc23)CC1,0.003162,"falling, full curve, poor fit"
COc1ccc(-c2noc(CN3CCN(c4ccccc4)CC3)n2)cc1,3.981,"falling, full curve, poor fit"
Cc1cccc2[nH]c(-c3ccc(NC(=O)c4ccco4)cc3)nc12,1.995,"falling, partial curve, poor fit"
Cn1c(=O)c2nc(NCc3ccccc3)cnc2n(C)c1=O,1.259,"rising, partial curve"
Oc1ccccc1C1Nc2cccc3cccc(c23)N1,0.01,"falling, full curve, poor fit"
COc1ncc2nc(-c3cccs3)c(=O)n(CCC#N)c2n1,10,"rising, partial curve"
Cc1nc2cnc(Nc3ccccc3)nc2n(Cc2ccc(F)cc2)c1=O,25.12,"rising, single point"
Cc1cc(N2CCN(C)CC2)nc2ccc(NC(=O)c3ccc(Br)o3)cc12,10,"falling, partial curve"
O=C(Nc1nc(-c2ccccc2)cs1)C1CCCCN1S(=O)(=O)c1ccccc1 (centres undefined),12.59,"falling, partial curve"
COC(=O)C1=CN(CCCN2CCCC2=O)C=C(C(=O)OC)C1c1cccs1,19.95,"rising, single point"
Cc1nc2ccc(Cl)cc2nc(C)/c1=N\O,31.62,"falling, single point"
CCN1CCCC1CNC(=O)Cn1cnc2ccc(S(=O)(=O)N3CCC(C)CC3)cc2c1=O (centres undefined),3.162,"rising, single point"
CCOC(=O)c1oc2ccccc2c1NC(=O)c1ccc(S(=O)(=O)N2CCCC2)cc1,25.12,"rising, single point"
CCOC(=O)c1cnn(-c2cc(C)nc3c(-c4ccccc4)cnn23)c1N,0.1259,"falling, full curve, poor fit"
COc1ccccc1-c1ccc2ncnc(NCCNC(C)=O)c2c1,0.5012,"falling, single point"
CN1/C(=C\C(=O)Nc2cccnc2)c2ccccc2CC1(C)C,12.59,"falling, partial curve"
COc1ccc(OC)c(C2C(C(=O)Nc3cccnc3)=C(C)NC3=C2C(=O)CCC3)c1 (centres undefined),25.12,"rising, single point"
CSCC[C@H](NC(=O)OC(C)(C)C)c1nnc(SCc2ccccc2)o1,0.01995,"rising, full curve, poor fit"
COc1ccc2[nH]cc(CCNc3ncncc3-c3ccccc3OC)c2c1,15.85,"falling, single point"

The first 4 entries again:

SMILES,AC50 (µM),remark
COc1cccc(Nc2ncc3nc(-c4cccs4)c(=O)n(Cc4cccs4)c3n2)c1,1.259,"rising, full curve"
CN(C)c1ccc(C2(c3ccc(N(C)C)cc3)OC(=O)c3cc(N(C)C)ccc32)cc1,5.012,"falling, full curve"
CC(C)(C)N1C(=O)c2ccc(C(=O)Nc3nccs3)cc2C1=O,12.59,"falling, partial curve"
CCSc1ccccc1C(=O)Nc1nncs1,5.012,"rising, single point"

Source: PubChem BioAssay AID912 (NCATS, 2007).